{
  "sequences": {"note": "Protein sequences, listed by entry. Tags and fused reporters are not part of them.", "UniProt P20226, whole entry": "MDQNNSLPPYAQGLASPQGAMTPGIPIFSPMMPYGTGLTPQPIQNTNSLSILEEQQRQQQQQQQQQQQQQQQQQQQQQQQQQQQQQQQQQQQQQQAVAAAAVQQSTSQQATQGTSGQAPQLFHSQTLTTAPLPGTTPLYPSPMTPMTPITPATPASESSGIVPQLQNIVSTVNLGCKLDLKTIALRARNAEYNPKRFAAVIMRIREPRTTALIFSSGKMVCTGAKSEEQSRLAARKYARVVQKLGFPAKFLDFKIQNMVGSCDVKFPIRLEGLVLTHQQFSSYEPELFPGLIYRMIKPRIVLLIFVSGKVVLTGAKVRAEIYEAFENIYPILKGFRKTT"},
  "source": "patent US6660255B1",
  "about": "“Inhibition of gene transcription by polyamide DNA-binding ligands” (California Institute of Technology, priority 1997, dated 2003)",
  "molecular_target": "TBP (rhTBP) (Homo sapiens) (UniProt P20226)",
  "assay": "binding assay",
  "details": "TBP binding inhibited by polyamide Her2-1; method not stated; purified recombinant protein; protein details: Promega",
  "note": "For at least one entry, the source does not settle the construct or the ends of the probe.",
  "data": [
    {"sequence": "TATAAGAATGA (double strand) [Her-2/neu TATA region]", "values": [
      {"measurement": "binding result", "result": "binds"}
    ]}
  ]
}
